This note sets out measurements from article PMC9813358, “Insights into the GSDMB-mediated cellular lysis and its targeting by IpaH7.8” (Nature Communications, 2023).

Protein sequences, listed by entry. Tags and fused reporters are not part of them. Lines headed by an entry give the natural chain unless they say otherwise; changes in a name come on top.
UniProt Q8TAX9: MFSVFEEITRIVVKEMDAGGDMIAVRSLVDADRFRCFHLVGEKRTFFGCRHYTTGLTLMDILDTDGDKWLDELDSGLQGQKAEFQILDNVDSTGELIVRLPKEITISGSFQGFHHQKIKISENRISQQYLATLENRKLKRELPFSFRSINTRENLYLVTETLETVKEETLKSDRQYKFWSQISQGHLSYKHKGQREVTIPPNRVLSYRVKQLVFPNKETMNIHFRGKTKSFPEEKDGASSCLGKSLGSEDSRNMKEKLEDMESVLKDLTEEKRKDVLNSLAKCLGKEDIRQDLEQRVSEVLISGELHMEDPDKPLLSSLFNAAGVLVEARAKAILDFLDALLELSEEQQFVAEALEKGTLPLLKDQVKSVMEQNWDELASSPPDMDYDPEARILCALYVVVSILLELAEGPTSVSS

No constants are given. Whether binding was seen depends on the method and setting. Binding calls can cover weak binding; strength is not graded here.

Experiment [1] addresses GSDMB (residues 1-411) (human) (UniProt Q8TAX9). Put plainly: AUC; sedimentation velocity; ~1 mg/ml in 25 mM Tris-HCl pH 8.0, 150 mM NaCl; both purified.
Experiment [2] has the same target. Put plainly: SEC; Superdex 200 Increase 10/300 GL; purified proteins mixed at a 3:1 molar ratio on ice for 1 h; 25 mM Tris-HCl pH 8.0, 150 mM NaCl, 2 mM DTT; fractions on SDS-PAGE; both purified.
Experiment [3] addresses MBP-GSDMB fusion protein (human) (UniProt Q8TAX9). The experiment can be described thus: pull-down; MBP-tagged GSDMB proteins (~100 µg) on amylose resin, tag-free IpaH7.8 (~400 µg) added; 25 mM Tris-HCl pH 8.0, 200 mM NaCl, 3 mM β-mercaptoethanol, 4 °C; eluted with maltose, SDS-PAGE; both purified.
Experiment [4] addresses GSDMB (residues 1-411) (human) (UniProt Q8TAX9). Put plainly: ITC; MicroCal PEAQ-ITC, 25 °C; IpaH7.8 proteins injected into the cell containing GSDMB or GSDMD proteins; 25 mM Tris-HCl pH 8.0, 150 mM NaCl unless otherwise stated (one titration of IpaH7.8 into GSDMB in a high salt buffer); both purified.
For experiment [5] the target is unchanged. The experiment can be described thus: SAXS; 25 mM Tris-HCl pH 8.0, 150 mM NaCl; 23 °C; ab initio model compared with the crystal structure; both purified.
Experiment [6] has the same target. The experiment can be described thus: crystal structure; GSDMB (1-411) with IpaH7.8 (23-264), co-expressed complex; sitting drop, 18 °C; 2.7 Å; both purified.

With “IpaH7.8 protein (residues 23–565) (from UniProt P18014 23-565) (enzyme)”, the binding entry in experiment [1], in experiment [2], in experiment [3] and in experiment [4] was “binds” in each case.
For the substance “N-terminal LRR domain (residues 23–264) of IpaH7.8 (from UniProt P18014 23-264) (domain or fragment)”, the binding result in experiment [2], in experiment [4], in experiment [5] and in experiment [6] was “binds” throughout.
Take “IpaH7.8 with the mutations in LRR5 (from UniProt P18014) (enzyme)”: in experiment [4], the binding result is “binds”.
Turning to “C-terminal NEL domain (residues 265–565) of IpaH7.8 (from UniProt P18014 265-565) (domain or fragment)”, the binding result in experiment [2] and in experiment [4] was “no binding” in each case.
